# These are yes or no findings as the source states them, for the method shown. Binding can be weak; no strength is given. Where a sequence is shown, tags or fusion partners need not be part of it.
# By UniProt entry, the sequences of proteins in these tests, tags left out. Where a name states a change or a piece, a line headed by the entry shows the natural chain unless it says otherwise.
# UniProt P30101: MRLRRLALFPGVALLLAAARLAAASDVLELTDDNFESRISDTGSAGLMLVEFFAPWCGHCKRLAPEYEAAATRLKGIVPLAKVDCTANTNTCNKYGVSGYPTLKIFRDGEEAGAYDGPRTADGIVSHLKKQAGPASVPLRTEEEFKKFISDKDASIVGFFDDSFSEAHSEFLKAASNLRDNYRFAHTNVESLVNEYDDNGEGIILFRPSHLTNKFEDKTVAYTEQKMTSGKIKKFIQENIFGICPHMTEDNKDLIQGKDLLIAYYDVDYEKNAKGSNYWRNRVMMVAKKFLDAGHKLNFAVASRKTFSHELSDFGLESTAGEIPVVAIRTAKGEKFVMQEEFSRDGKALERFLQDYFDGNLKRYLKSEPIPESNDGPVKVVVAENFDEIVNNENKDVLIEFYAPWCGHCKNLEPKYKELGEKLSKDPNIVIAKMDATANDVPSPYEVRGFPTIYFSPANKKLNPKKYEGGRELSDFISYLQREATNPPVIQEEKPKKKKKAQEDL
# Molecular target: T1, GST-RalA (simian) (UniProt P63320)
# T1 sequence: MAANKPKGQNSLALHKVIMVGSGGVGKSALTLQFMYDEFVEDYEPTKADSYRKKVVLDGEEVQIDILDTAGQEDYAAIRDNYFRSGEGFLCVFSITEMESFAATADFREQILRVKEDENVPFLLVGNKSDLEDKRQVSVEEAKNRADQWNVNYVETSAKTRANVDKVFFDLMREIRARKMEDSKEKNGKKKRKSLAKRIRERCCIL
# Test: pull-down; GST-RalA loaded with GDP as bait; purified 6xHis-ERp57 or mutants; Western blot with anti-6xHis antibody; with or without 1 mM DTT; both purified
row,Substance,binding
1,6xHis-ERp57 a domain mutant (from UniProt P30101),binds
2,6xHis-ERp57 a' domain mutant (from UniProt P30101),binds
3,6xHis-ERp57 a+a' double domain mutant (from UniProt P30101),binds
